Reference: article PMC10853802, “ESRP1 controls biogenesis and function of a large abundant multiexon circRNA”
Positions count from the first letter of the chain named. For part of these data: The comparison behind a weaker result is the experiment's own reference, which may not be listed here. Tags and fusion partners may be left off the protein sequences shown. For part of these data: For at least one entry, the source does not settle the construct or the ends of the probe. For part of these data: At least one verdict was read from the data and is not stated in words by the source.

Sequences of proteins named here, by UniProt entry; tags and fusion partners are left off. A change or cut given only in a name is not applied to a line headed by its entry.
UniProt Q6NXG1: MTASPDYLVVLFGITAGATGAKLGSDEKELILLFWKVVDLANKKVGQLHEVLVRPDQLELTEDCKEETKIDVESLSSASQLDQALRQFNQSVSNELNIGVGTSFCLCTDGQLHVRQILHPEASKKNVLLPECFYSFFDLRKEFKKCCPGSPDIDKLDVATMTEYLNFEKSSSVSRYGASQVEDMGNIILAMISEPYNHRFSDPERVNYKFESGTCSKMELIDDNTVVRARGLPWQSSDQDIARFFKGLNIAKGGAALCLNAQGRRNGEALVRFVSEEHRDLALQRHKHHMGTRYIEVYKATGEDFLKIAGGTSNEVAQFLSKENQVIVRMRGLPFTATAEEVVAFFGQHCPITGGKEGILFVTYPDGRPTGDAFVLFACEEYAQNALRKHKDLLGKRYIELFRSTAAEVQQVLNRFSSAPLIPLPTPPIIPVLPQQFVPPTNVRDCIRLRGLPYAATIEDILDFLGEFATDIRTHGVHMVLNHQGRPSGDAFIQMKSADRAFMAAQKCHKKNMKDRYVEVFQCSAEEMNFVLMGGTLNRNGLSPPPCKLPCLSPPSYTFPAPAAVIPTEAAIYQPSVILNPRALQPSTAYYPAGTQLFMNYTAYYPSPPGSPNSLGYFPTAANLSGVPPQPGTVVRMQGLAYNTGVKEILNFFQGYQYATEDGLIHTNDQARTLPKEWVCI

Key:
Assay in all cases: ITC
Details in all cases: ITC: 100 mM NaCl, 10 mM Tris-HCl pH 8.0, 25 C; 300 uM protein injected into 20 uM RNA; recombinant protein; residues 312-430; protein details: His-SUMO removed by Ulp1
[1] = target: T1, ESRP1 qRRM2 R331A (human) (UniProt Q6NXG1)
T1 sequence (looked up): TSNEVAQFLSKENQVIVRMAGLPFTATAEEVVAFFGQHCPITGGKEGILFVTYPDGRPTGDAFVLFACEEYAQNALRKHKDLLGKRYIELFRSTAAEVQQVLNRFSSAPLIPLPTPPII

[2] = target: T2, ESRP1 qRRM2 E400A (human) (UniProt Q6NXG1)
T2 sequence (looked up): T1 sequence (looked up) with A20R, E89A

[3] = target: T3, ESRP1 qRRM2 WT (human) (UniProt Q6NXG1)
T3 sequence (looked up): T1 sequence (looked up) with A20R

UGGUGG [6-mer RNA]: binds more weakly [1]; binds more weakly [2]; binds [3].
